Experimental findings from PMC4605295, “The N-terminus of RPA large subunit and its spatial position are important for the 5′->3′ resection of DNA double-strand breaks” (Nucleic Acids Research, 2015) are described below.

Protein sequences, listed by entry. Tags and fused reporters are not part of them. Residues count along the entry.
UniProt Q01588, residues 1-121: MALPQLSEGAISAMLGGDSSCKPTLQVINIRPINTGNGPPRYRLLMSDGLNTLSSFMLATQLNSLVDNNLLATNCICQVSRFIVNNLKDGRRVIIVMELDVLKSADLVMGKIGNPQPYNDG

This assay has as its target GST-RPA1N (N terminal 121 amino acids of Xenopus RPA1) (Xenopus) (UniProt Q01588). The assay is described as follows: pull-down; glutathione Sepharose beads coated with GST-RPA1N incubated with Xenopus egg extract (diluted 1:1 with ELB), 4°C 1 h; washed with buffer A + 150 mM NaCl + 0.005% NP-40; Western blot for WRN and DNA2; only the target purified. A general note: A western blot detects proteins with antibodies after separation by electrophoresis.

These are yes or no findings as the source states them, for the method shown. Binding seen in cells or lysates may run through a third protein. Some entries that bind do so weakly or less than the wild type.

B1: Xenopus WRN in egg extract (protein, UniProt O93530 1-1436)
chain: MTSLQRKLPEWMSVKQQEDRIDDAKKSFCKKNILEDNLPFMKFNGSIVYSYESNDCSLLSEDIRSSLLEEDVLGFDIEWPPVYTKGKTGKVALIQVCVSEKKCYLFHISPMAGFPKGLKRLLEDESVRKVGVGIEGDQWKLMSDYELKLKGFIELSEMANQKLRCKEKWTFNGLIKHLFKEQLYKRKSYRCSNWDIFLLTEDQKLYAATDAYAGLLIYKKLEGMDAHESDSFRVGREGVADCKGVKRQLTDLSKGLMDLVNQVPNSFGCYTEAVRAVDILEDLSEKLEELRNIMKEASKAEGNGLHFQNSEDCSKKDKSILHVACKESLAEHKMDCKNADSQNNKDIDSCQNENRDEDFFMTLGISEEELYMMEREDDKKQTNPDYKLNKDSCDTNEEKDMSYVIESDEDFDSEIIKSLEDLDNSTEEALGTGVPQAGLIPAKSVDTVADEEEDEGIEEEDDDDDWDPSMPEPSAQHISCLKTYFGHSSFKPVQWKVVHSVLRERRDNLVVMATGYGKSLCYQFAPVYTSGIGIVICPLISLMEDQVLQLEMSNISSCFLGSAQSKNVLQDVKDGKMRVIYMTPEFCSRGISLLQDLDNRYGITLIAIDEAHCISEWGHDFRSAYRSLGSLKRMLPNVPIVALTATASPSIREDITKSLNLHNPQVTCTSFDRPNLYLDVARKTTNISIDLRQFLIKKQQGSGWEFEGATIVYCPTRKTSEQVTAELIKLGIACGTYHAGMGIKQRREVHHRFMRDEIHCVVATVAFGMGINKPDIRKVIHYGAPKEMESYYQEIGRAGRDGLPSCCHALWAQADMNFNRHMLGEIPNKGFREYKLKMLTKMEKYLNSSTCRRKIILSHFEDKQLRKASSGIMGTEKCCDNCKTRLICNISINDTEDNLQDFGPQAYKFISAVDVLGQKFGTGVPVLFLRGSTSQRVPDRFRNHSLFSSGKDQTEAFWKVLARQLITEGYLQESSGQTKFSTICGLTSKGSNWLIKANNEQCPSLLLPSNNELCLQRTRVSNFSSAQAHSSMVPHASSNTRSSMPKAGPEKMELKDKFSYQEAERLSKAAGVSKSSFKLQTPCKLSRPPEPEVSPRERELQTTLYGRLVVARQKIASERDILPAVLATNKVLVDMAKLRPTTSENMKKLDGVSEAKSAMLAPLLEVVKEFCIANSLKVDVFSGSVSQSESTFFTPREQERISLPESQRMSYSLFQEQNLSLKKIADVRCLSMAVVGMHLWQALKAGYSFDVQRAGLTPEMKKLITYAIKKPPINSDLSSFKAIREYVPANIDGYPIRMVISLLEKEGSSGAQGQPEFPTQKTLIQTEENPKNVSVQNTKHKVTMGKSMWIEKKPTQPATAELEVTKGKALAPIMLASWNEASLDADTEELFSESQSSTTRPRRRLPEWFGSTKGNAATRCIQESKNLGEEKGSFFD
In the case of B1, the binding entry is recorded as “binds”.

B2: Xenopus DNA2 in egg extract (protein, UniProt Q8QHA5 1-1053)
chain: MEPVSAECHLPPEDDLLEMMMEQSFTEPEEKSQDKPTRKIIPKTKLCKGVNNRYCVLHIKEVYAQREEKHLTITASQEGDDLELCILKDDWVALQIKPGDIIHLEGNCSVDNTWTISRDTGYLILYPDLLISGTSIANGIRCLRRSVLSEKFKVCDKGSRQMLNGTMLHDIFQRATTCGFTDSVLQELAHHTVHGPKYLKEMYQLKLNQADVMGEIQEYLPSLSKWATDFMTHPLNQQQINRTKSTAGDPTETTKVSEFLDIEENIWSPRFGLKGKIDVTARVKIHQKSKAHLKIMPLELKTGKESNSIEHRSQVVLYTLLSQERREDPEAGLLLYLKTGNMYTVPGNRLDRRELLKIRNELSYYLTNVLHKSDNGSKETTLASLPAMIADRQACKYCSQMRNCALYNRSVEQQTENCYIPPEMIPVVQKETEHLTEDHLQYFRLWYLMCTLEANSKDSKMGRKNIWMMSSSEREEDGQCIGNLIRTGHVQTISDVQYLHSFQRRSGSVPATNLASGDRVVVSGEERFLALSTGYIKEVKDENITCILDRSLVKLPEDLLFRLDHEEGGGGLEFHLGNLSRLMENSSVSEKLRKLIIDFSKPNFVQHLSSILPPDAKDIVASILRGLNKPQKQAMKRVLLSKDYTLIVGMPGTGKTTTICTLVRILYACGFSVLLTSYTHSAVDNILLKLKKFQVGFLRLGRTQKLHPDVQEFSEEEICKAKSIKSLSALEELYNSQPVVATTCMGVNHPIFTRRRFDFCIVDEASQISQPICLGPLFFADRFVLVGDHQQLPPLVKSAEARELGMSESLFKRLERNQEAVVQLTVQYRMNSKIMALSNKLVYEGRLECASDRVSNAVVQLPHIKTLLLELEFRESQESMWIKDVLEPSNPVCFLNTEKIPALETEEKGGISNWIEAKLVFHLTKLYLKAGCRPSDIGIIAPYRQQLKMISNYFNSLSASAVEVNTVDKYQGRDKSVIIVSFVRSNIDGKLGDLLKDWRRLNVALTRAKHKLIMLGCVPTLNRFDCLEQLICNLKTENQIYDLPEGAHEHFPV
Regarding B2, the binding entry is “binds”.
